Experimental findings from patent US20050214309 are described below.

Chains of the proteins cited; added tags and fusions are not shown. Chains listed by the source or under a name are the forms on record and can include a tag or linker.
UniProt P16220, other isoform, or with tags, fused parts or gaps: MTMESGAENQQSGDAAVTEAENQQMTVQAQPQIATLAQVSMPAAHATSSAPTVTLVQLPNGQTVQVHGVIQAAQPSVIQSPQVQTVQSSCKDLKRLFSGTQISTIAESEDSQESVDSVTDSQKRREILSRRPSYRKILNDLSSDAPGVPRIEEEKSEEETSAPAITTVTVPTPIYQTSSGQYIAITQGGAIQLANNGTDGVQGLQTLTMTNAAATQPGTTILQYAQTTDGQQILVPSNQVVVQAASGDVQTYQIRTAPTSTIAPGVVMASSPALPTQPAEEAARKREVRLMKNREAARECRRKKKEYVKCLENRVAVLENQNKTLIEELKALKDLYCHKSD
EWS/ATF1 fusion (Homo sapiens), one chain, as listed by the source: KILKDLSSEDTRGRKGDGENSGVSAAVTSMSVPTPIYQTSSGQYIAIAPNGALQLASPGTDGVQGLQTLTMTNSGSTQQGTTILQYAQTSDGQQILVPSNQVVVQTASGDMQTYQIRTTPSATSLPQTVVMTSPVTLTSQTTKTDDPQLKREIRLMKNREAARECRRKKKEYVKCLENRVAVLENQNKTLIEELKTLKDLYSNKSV

The subject of data set [1] is EWS/ATF1 fusion (Homo sapiens). Description: EMSA. Particulars: 30 C; inhibited by mAb4, supershifted by mAb5; protein in a lysate after overexpression; label: 32P. In general terms: A gel shift assay detects complexes by their altered migration in electrophoresis.
In a further data set the target is CREB (Homo sapiens) (UniProt P16220). The experiment in a line: EMSA. Conditions: supershifted by MAb1, 3, 4; complex eliminated by sFv4; purified recombinant protein; protein details: E. coli pET-11a, DNA-cellulose purified; label: 32P.
Data set [2] has as its system EWS/ATF1 fusion (Homo sapiens). Description: competition with a labelled probe. Particulars: 100-fold excess unlabeled AP1 used as specificity competitor for EWS/ATF1-CRE complex; protein in a lysate after overexpression.

For at least one entry, the source does not settle the construct or the ends of the probe. For part of these data: Results from cells or extracts need not show a direct contact. For part of these data: No signal at the amounts used counts as a negative.

On to “AGAGATTGCCTGACGTCAGAGAGCTAG (double strand) [consensus CRE]”, for which the binding result (in data set [1]; in the data set with CREB (Homo sapiens)) was “binds” each time.
As for “CGCTTGATGAGTCAGCCGGAA (double strand) [AP1 oligonucleotide]”, the binding result in data set [2] is recorded as “no binding”.
